Results taken from patent US20160157484A1, “NATURAL ANTIMICROBIAL COMPOSITIONS” (Lincoln Manufacturing Inc., priority 2011, published 2016).

Assay: Ability to thicken a DEA/sulfate shampoo system without salt
Conditions: 5% added to DEA/sulfate shampoo system

| Compound | Thicken DEA/Sulfate Shampoo Systems without salt |
| --- | --- |
| OCCCO [1,3 Propanediol] | No |
| Glycereth 2-Cocoate | No |
